Screen size: about 52,000 sequences; about 210 (0.4%) were called active.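 The calls were made as follows: active = gene whose silencing raises cell survival under the drug, median off-target-corrected z-score across its silencing RNAs 2 or more; inactive = the rest.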 This is one part of the list.
experiment: Resistance to Poly (ADP-Ribose) Polymerase inhibitor: Gene Identification via Genome-wide siRNA Screen; conditions: mouse BRCA2 R2336H ES cells, olaparib, CellTiter-Glo viability; active compounds read high
In short: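 Mouse BRCA2 R2336H ES cells were reverse-transfected with siRNA (20 nM final), treated at 48 h with 500 nM olaparib, and read by CellTiter-Glo after 72 h. Scores: MAD-based z per siRNA, median per gene, seed off-target correction.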

Row | Sequence | z-score
1 | GCGGGUGCUUUCUUGUUGUTT against Dfy | inactive: -0.334
2 | CGGACGACAUUACAAUUGATT against Nrxn2 | inactive: -1.02
3 | GGCCUUAAUUAUGUCUUAGTT against Slc25a25 | inactive: -2.21
4 | GGUUCCUAGUAUUAUGUACTT against 2010309E21Rik | inactive: 1.62
5 | CUUUGGUAGGAAACCUCUUTT against Olfr1281 | inactive: 0.915
6 | GGAAAUUGUCUUUGGCUUUTT against Otop1 | inactive: -0.254
7 | GGCUCACAAUGAAAAAGGUTT against BC030314 | inactive: -1.03
8 | CCCUAAAAGACAAAGUGCUTT against Cklfsf3 | inactive: 0.903
9 | GCUUAACAGGAGCAUUGGCTT against Raly | inactive: -1.81
10 | GGAAAGCUACUGUCAGAGUTT against Olfr473 | inactive: 0.453
11 | GGUGCUAUUAUCGUGGAUCTT against AW538196 | inactive: 1.36
12 | CGUUAGUGCUGGUUAAUGATT against Cdk5r1 | inactive: -0.0496
13 | CCACGAUUUCCCAAUCCUGTT against Fiz1 | inactive: 1.28
14 | GGAAGAUAGAGCAUAUAUCTT against Tm4sf13 | inactive: 1.14
15 | GGUCAUGAACCUCAUCAUCTT against Hem1 | inactive: 0.918
16 | GGAUCAGCUGGACAUUCUUTT against 1500011H22Rik | inactive: -1.1
17 | GGUCUGGAGAUUGUAUUUUTT against Ptpn21 | inactive: -1.97
18 | GGUGGUGACCUCCACAGAUTT against Clcnka | inactive: -1.88
19 | GGAAGCUGUGCUCUCCAUGTT against C920025J10 | inactive: -0.548
20 | GGCUUUGUGCUUUAACCUUTT against 6430401A05Rik | inactive: 0.992
21 | GGAGGGUAGGUCCUUUGUATT against Pcdhb16 | inactive: -2.42
22 | GCCGCUGAACAAUUUAUCCTT against Rnase6 | inactive: -0.817
23 | GCAGAGGCUCUCCUUAUAGTT against 2900054P12Rik | inactive: -0.379
24 | GGUGGACAAGUUCAAAGCCTT against Apg4d | inactive: 1.06
25 | GCUUUUCAGCAUGGAUUUATT against Rab6ip1 | inactive: -0.518
26 | GGCUUCACAUUUUGGCAGUTT against Stat6 | inactive: 0.718

Row | Sequence | z-score
27 | GCCCUGUUUACACCUCUGATT against Sec23a | inactive: 0.352
28 | GAUGUACUUAUUCAUGAUGTT against Olfr353 | inactive: -0.222
29 | GCUGGCUAGCCAUAACCAUTT against 4933414G08 | inactive: -0.58
30 | GGUUCUGUUCCCAUGAGAATT against Ntng2 | inactive: -0.999
31 | CCGGUAUGGCAAAAGCCAUTT against Pomt1 | inactive: -0.591
32 | GGUUAAACAGCUCCAUUUUTT against Padi2 | inactive: 1.03
33 | GGAAGAGAACAACAUCUUUTT against 2810405F18Rik | inactive: -0.0432
34 | GGGAUGAAAUCAAUUGUACTT against C820005L12Rik | inactive: -0.423
35 | GCAAUGUUCGCUUGAAACUTT against 9430099J10Rik | inactive: -0.126
36 | GGUAGUGAUUACGAACCAATT against Hey1 | inactive: -0.536
37 | GCAUAAACAGCGACAAAUGTT against Mrpl36 | inactive: 0.0889
38 | GGUGUUAUGCAAAAUUCAGTT against Slc7a6 | inactive: 2
39 | GGCAAUACAGGCAUCUUCATT against V1rc4 | inactive: -0.0103
40 | GGUACAAUUCUUCUUUCGUTT against Olfr1420 | inactive: -0.0511
41 | CGCGAUUGCACUCUUAUUATT against 2610001J05Rik | inactive: 0.0985
42 | GUACCUCUACUAUUCCUUUTT against 4833428E21Rik | inactive: 0.0656
43 | GCUCCACACUACGUGUCAUTT against Olfr476 | inactive: 0.352
44 | GGGCAUCACUUGUAAUUAATT against Bcl10 | inactive: -2.03
45 | GGUUCGAAAUUUUCUAACCTT against Gpr50 | inactive: -0.377
46 | GCUAAUCUCUCAAAUGUUUTT against Kpna1 | inactive: 1.35
47 | CCCACCUUCCGACUUGAAUTT against Col12a1 | inactive: -0.248
48 | GGAUUCGUUCAGCUAAGGGTT against Olfr1023 | inactive: 0.156
49 | GCUACAGUCGUUGUUUGAATT against Serpinf1 | inactive: 0.897
50 | GGUCUUAGCUGUCCUCAAGTT against Olfr273 | inactive: -0.377
51 | GGAUGAGUGCAGCAAAAGUTT against 9230109N16 | inactive: 1.64
52 | CACUAGUUGCUGGUCUUACTT against AA415817 | inactive: -1.47

In a second layout: entries from further up.
Row	Sequence	z-score
27	GCCCUGUUUACACCUCUGATT against Sec23a	inactive: 0.352
28	GAUGUACUUAUUCAUGAUGTT against Olfr353	inactive: -0.222
29	GCUGGCUAGCCAUAACCAUTT against 4933414G08	inactive: -0.58
30	GGUUCUGUUCCCAUGAGAATT against Ntng2	inactive: -0.999
32	GGUUAAACAGCUCCAUUUUTT against Padi2	inactive: 1.03
34	GGGAUGAAAUCAAUUGUACTT against C820005L12Rik	inactive: -0.423
35	GCAAUGUUCGCUUGAAACUTT against 9430099J10Rik	inactive: -0.126
36	GGUAGUGAUUACGAACCAATT against Hey1	inactive: -0.536
37	GCAUAAACAGCGACAAAUGTT against Mrpl36	inactive: 0.0889
39	GGCAAUACAGGCAUCUUCATT against V1rc4	inactive: -0.0103
40	GGUACAAUUCUUCUUUCGUTT against Olfr1420	inactive: -0.0511
41	CGCGAUUGCACUCUUAUUATT against 2610001J05Rik	inactive: 0.0985
42	GUACCUCUACUAUUCCUUUTT against 4833428E21Rik	inactive: 0.0656
43	GCUCCACACUACGUGUCAUTT against Olfr476	inactive: 0.352
44	GGGCAUCACUUGUAAUUAATT against Bcl10	inactive: -2.03
45	GGUUCGAAAUUUUCUAACCTT against Gpr50	inactive: -0.377
46	GCUAAUCUCUCAAAUGUUUTT against Kpna1	inactive: 1.35
47	CCCACCUUCCGACUUGAAUTT against Col12a1	inactive: -0.248
48	GGAUUCGUUCAGCUAAGGGTT against Olfr1023	inactive: 0.156
49	GCUACAGUCGUUGUUUGAATT against Serpinf1	inactive: 0.897
51	GGAUGAGUGCAGCAAAAGUTT against 9230109N16	inactive: 1.64
52	CACUAGUUGCUGGUCUUACTT against AA415817	inactive: -1.47

Following part.

Row | Sequence | z-score
53 | GGACUUGUUCUUGUACAGCTT against 2610510B01Rik | inactive: 1.76
54 | GGAGAAUUGCCUAUUUGAATT against D330022A01Rik | inactive: 0.882
55 | CUAUGACACUUGGUUCCAUTT against LOC381680 | inactive: -2.12
56 | GGUGAACUGUUCUUCCUCATT against Icam1 | inactive: -3.34
57 | CCUUGAAAUUCGUUAUCAUTT against Tmc7 | inactive: 1.43
58 | CCCGAGCCUCAAGAUUUACTT against 2310042L06Rik | inactive: 0.364
59 | GCUAUUGUUGUUGCAUCUGTT against V1rd4 | inactive: 0.0375
60 | GGAAACACCUUUGAGGCUCTT against 2410012C07Rik | inactive: -0.17
61 | GGAGCAUCCCUACGAUGCATT against Atp6v1f | inactive: -0.575
62 | CCUGCUAUUUCUAUAUAACTT against Galnact2 | inactive: 0.408
63 | GGAAGGGCCACUUAAUGCUTT against Zzz3 | inactive: 0.221
64 | GCAACAUAUGGUAUACUGUTT against Mdm4 | inactive: 1.52
65 | GGAUGUUUGCUCUUGAGCGTT against 2610034N03Rik | inactive: 0.18
66 | GGCAAAUAUGAACGUGCACTT against Ptcd2 | inactive: 0.00701
67 | GGUUUUUUAUUCCUGAUGGTT against Slc35f1 | inactive: 0.627
68 | GGCGAGUUCCAGAUUCUUCTT against Car3 | inactive: 1.26
69 | CGGGUGAAGAAACAAAAAUTT against Nap1l1 | inactive: 0.596
70 | GGAGAUGGUUAUGUGGGAUTT against Tgoln2 | inactive: -1.23
71 | GGAACUACGAAGUCUGUUCTT against Elavl1 | inactive: 0.98
72 | GGGAUUCCUAUUUCACAUCTT against BC023488 | inactive: -0.437
73 | CGACAUAUAAAAUUGUUCCTT against Cobl | inactive: -0.911
74 | CCACAUCUUCACAAUGUCCTT against Cdk8 | inactive: -1.02
75 | GGACCAGAAGAGGAUGGUCTT against Ndn | inactive: 1.5
76 | GCUUCAUGGAUGCAAUUGATT against Adhfe1 | inactive: -0.205
77 | GCCCAUUUUAGUAAACGAATT against Dspp | inactive: -0.0241
78 | GGAACAUGUUCUGCAUUUATT against Rab40b | inactive: -2.23

Row | Sequence | z-score
79 | GGAUUCCUGAUUUCUUCAUTT against Snip1 | inactive: -0.071
80 | GGCUCAGCUCCAGCAUAAUTT against 4833436C18Rik | inactive: -0.949
81 | CCAACGACUAAGAGAAGAGTT against 2610019F03Rik | inactive: 0.225
82 | GGCCAAAGGAGUUCAUGAUTT against Gcm2 | inactive: -0.789
83 | CCAUAUGUCACUGCACUUATT against A930041G11Rik | inactive: 0.297
84 | CCUGCUCUUCGUUAUCUUGTT against Olfr552 | inactive: 0.567
85 | GGACACAAGCCUAUUCCAATT against 1700051E09Rik | inactive: -0.442
86 | GCACAACUCAGAAGUAAUUTT against Ghr | inactive: -0.192
87 | CCCUCACUGCUCAAAUUCUTT against Ifna12 | inactive: -0.159
88 | GGACAGAUCCCAUUCAAAUTT against D15Bwg0669e | inactive: 1.32
89 | GGAGGAUCACCCAUCAAAUTT against Oxct1 | inactive: 0.6
90 | GCAAGGUAUUCCAUGCUCATT against LOC545925 | inactive: -0.828
91 | GGAAAAAUGAACUUCAGUGTT against Cetn2 | inactive: -0.422
92 | GGAAGUUACAGAUGUGGCUTT against Nog | inactive: 0.475
93 | GUGUGCCAAAACCGAGAGUTT against 1700127D06Rik | inactive: 0.713
94 | GGACUAUCCUCACUCCCUUTT against Pigo | inactive: -1.92
95 | GGAAGUGUGGUGAAACUGUTT against Clecsf8 | inactive: -0.25
96 | GGAUUUCAACGUGGCAGUUTT against 2310046G15Rik | inactive: 0.875
97 | GGGAUCAUCUCUUUUGCUGTT against Olfr720 | inactive: -0.484
98 | GGUCAAGGAAUUAGUGAUUTT against 1700055O19Rik | inactive: 0.375
99 | GGAAGAAAGAAAGAACAGATT against D13Bwg1146e | inactive: 1.48
100 | GGGAAGGGUGAUGCAGAUCTT against Prkcq | inactive: -1.42
101 | GGAAAUCAGAAUUCCAAAATT against Cntn6 | inactive: 0.984
102 | GCGACCAUGACAAACACAATT against Brd7 | inactive: 0.48
103 | GCCCAGUACGAAGAAAUCATT against Dkk4 | inactive: 1.51
